Results deposited as PubChem BioAssay AID1259300 (Sanger Institute, 2017).
Screen: 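Kinase and colorectal-mutated gene knock-downs lowering HCT15 viability or boosting drug effects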 (primary screen). Cell system: HCT15 colorectal cancer cells. Knock-down reagent: siRNA pool against human genes. Conditions: anchor drug or DMSO vehicle added 24 h after seeding: BYL719 1 µM, cetuximab 5 µg/ml, trametinib 10 nM; drug doses chosen to barely affect viability alone. Detection: 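Cell viability after knock-down, as fraction of non-targeting pool wells averaged over replicates, plus robust z-score for knock-down alone; synergy score per drug (BYL719 1 µM, cetuximab 5 µg/ml, trametinib 10 nM)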. Reading the numbers: viability z-score, siRNA alone: higher = more viable cells after knock-down; viability vs non-targeting, siRNA alone: higher = more viable cells; synergy score with BYL719 and synergy score with cetuximab and synergy score with trametinib: higher = stronger synergy of knock-down with drug. Rule for the call: 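Called active (essential) if viability z-score with knock-down alone falls below -3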. Calls: active = essential: knock-down alone lowers viability (z below -3); inactive = no strong viability loss with knock-down alone.
This is a random part of 794 reagents. 18 of them (2.3%) count as active. 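Calls rest on knock-down alone, not drug synergy; depositor treated synergy scores above 0.15 as synergistic; drug doses alone had little viability effect.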 Unmarked entries are inactive. Viability is capped at 1. Not given: the amount of reagent, the time to read-out.

Target gene | viability z-score, siRNA alone | viability vs non-targeting, siRNA alone | synergy score with BYL719 | synergy score with cetuximab | synergy score with trametinib
FN3K | 0.625 | 1 | 0.146 | 0.145 | 0.0395
HSPB8 | -1.12 | 0.873 | 0.0241 | 0.00639 | -0.213
TAOK3 | 0.625 | 1 | 0.275 | 0.0751 | 0.0875
MAP4K5 | 0.625 | 1 | -0.085 | 0.1 | 0.104
GTF2H1 | -0.108 | 0.947 | 0.223 | 0.324 | 0.0765
CDK13 | 0.625 | 1 | 0.2 | 0.0629 | 0.0188
HIPK3 | 0.305 | 0.977 | 0.0901 | 0.173 | 0.0223
FOXP1 | -1.52 | 0.844 | 0.0887 | -0.021 | -0.0189
CKB | 0.18 | 0.968 | -0.0156 | -0.0201 | -0.0523
CDC42BPG | -0.247 | 0.937 | 0.066 | 0.0254 | -0.00747
GUCY2D | -5.62 (active) | 0.546 | -0.0392 | 0.088 | -0.129
TRIO | -0.291 | 0.933 | 0.0169 | -0.00498 | 0.00622
CSNK1G1 | -1.87 | 0.818 | 0.159 | 0.0358 | -0.0384
CHKA | -1.08 | 0.876 | 0.0186 | 0.0562 | 0.0219
CASK | 0.512 | 0.992 | 0.242 | 0.0798 | -0.0364
CSNK2B | 0.625 | 1 | 0.245 | 0.0307 | 0.0502
CAMK1 | -0.39 | 0.926 | 0.0337 | 0.1 | 0.0356
STK26 | 0.625 | 1 | 0.0145 | 0.0873 | -0.0897
MPP3 | 0.625 | 1 | 0.154 | 0.0333 | -0.0374
CDK19 | -0.758 | 0.899 | 0.0752 | -0.0693 | -0.0749
DSTYK | 0.625 | 1 | 0.1 | 0.0208 | 0.051
BMAL1 | -3.39 (active) | 0.708 | 0.0692 | 0.00535 | 0.108
TCF7L2 | -0.195 | 0.94 | -0.0607 | -0.0058 | -0.152
TBX3 | 0.625 | 1 | 0.149 | 0 | -0.00311
CAMK4 | -0.363 | 0.928 | 0.0863 | 0.0192 | -0.163
MPP2 | 0.625 | 1 | 0.248 | 0.00537 | 0.0902
STK35 | 0.625 | 1 | 0.152 | 0.15 | -0.00462
IKBKG | -0.406 | 0.925 | 0.162 | 0.0245 | -0.166
AKT3 | 0.625 | 1 | 0.173 | 0.153 | -0.0984
PRPS1L1 | 0.401 | 0.984 | 0.181 | 0.0122 | -0.0543
AXL | 0.181 | 0.968 | 0.236 | -0.02 | 0.0195
CAD | 0.625 | 1 | 0.138 | 0.068 | 0.0327
CLK2 | 0.625 | 1 | 0.0997 | 0 | -0.0095
GUCY2C | 0.625 | 1 | 0.135 | 0.0116 | -0.0984
MARK2 | 0.625 | 1 | 0.118 | 0.101 | 0.00701
PRKACB | 0.625 | 1 | 0.00772 | 0 | 0.0285
BRSK1 | 0.192 | 0.969 | 0.124 | 0.0294 | -0.106
AGK | -0.0948 | 0.948 | 0.13 | -0.0128 | -0.000616
SPEG | 0.625 | 1 | 0.0404 | 0 | -0.0669
SMG1 | 0.0182 | 0.956 | 0.155 | 0.0451 | -0.0744
DGKA | -0.786 | 0.897 | 0.116 | 0.111 | 0.00988
ROR1 | 0.625 | 1 | 0.143 | 0.19 | -0.0984
MAK | 0.625 | 1 | 0.0753 | 0.0906 | -0.0863
ADCK5 | 0.445 | 0.987 | 0.0953 | 0.0828 | 0.0715
PTK7 | -1.49 | 0.846 | 0.233 | 0.162 | 0.0577
STK32B | -0.63 | 0.909 | 0.0625 | -0.0913 | -0.0447
TSSK4 | 0.43 | 0.986 | 0.209 | 0.135 | 0.0296
PFKM | -0.144 | 0.944 | 0.0125 | 0.0244 | 0.216
ACVRL1 | -0.493 | 0.919 | -0.116 | -0.0498 | -0.131
CDK14 | 0.0472 | 0.958 | 0.174 | -0.042 | -0.0861

8 of these entries, reformatted.
Target gene	viability z-score, siRNA alone	viability vs non-targeting, siRNA alone	synergy score with BYL719	synergy score with cetuximab	synergy score with trametinib
DGKA	-0.786	0.897	0.116	0.111	0.00988
ROR1	0.625	1	0.143	0.19	-0.0984
MAK	0.625	1	0.0753	0.0906	-0.0863
ADCK5	0.445	0.987	0.0953	0.0828	0.0715
PTK7	-1.49	0.846	0.233	0.162	0.0577
STK32B	-0.63	0.909	0.0625	-0.0913	-0.0447
TSSK4	0.43	0.986	0.209	0.135	0.0296
PFKM	-0.144	0.944	0.0125	0.0244	0.216
